PubChem BioAssay AID743121 | NCATS | 2013
Here is a random part of about 26,000 reagents tested. Of all reagents, 167 (0.63%) were called active. 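Calls are per gene from RSA p-values that are not deposited; an individual active-marked siRNA can sensitise only weakly.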

Aim: 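Knock-downs that sensitise breast cancer cells to camptothecin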 (primary screen)
Cell system: MDA-MB-231 cells, a human breast cancer line
Knock-down reagent: single siRNA against human genes, 20 nM siRNA (0.8 pmol per well)
Timing: 120 h (drug added 48 h after transfection, read 72 h later)
Conditions: camptothecin 20 nM (about EC30) for 72 h; vehicle 0.1% DMSO in parallel plates
Detection: 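CellTiter-Glo ATP signal, scaled to control siRNA as percent viability; sensitisation given as log2 of untreated divided by camptothecin-treated viability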
Scale: log2 vehicle/camptothecin viability: higher = stronger sensitisation to camptothecin; viability with camptothecin and viability without drug: higher = more viable cells
Call rule: 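Active genes have an RSA gene-level p-value below 0.001, computed from the ratios of their separate siRNAs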

no.	Gene	PubChem SID	log2 vehicle/camptothecin viability	viability with camptothecin (% of control)	viability without drug (% of control)	call
1	PTAR1	SID164673554	0.494	4.83	6.81	active
2	PTAR1	SID164673555	-0.155	70.9	63.6	active
3	PTAR1	SID164673561	0.528	78.5	113	active
4	PTAR1	SID164673562	0.67	32.1	51	active
5	VRK3	SID164472712	-0.37	105	80.9	inactive
6	VRK3	SID164472713	0.524	45.9	65.9	inactive
7	VRK3	SID164472714	-0.413	82.8	62.2	inactive
8	VRK3	SID164472718	-0.699	51.9	32	inactive
9	ASGR1	SID164354293	-0.49	87.3	62.2	inactive
10	ASGR1	SID164354296	-0.201	43.8	38.1	inactive
11	ASGR1	SID164354299	0.181	28.2	32	inactive
12	GABRA2	SID164365691	0.0343	12.5	12.8	inactive
13	GABRA2	SID164365692	0.191	97.8	112	inactive
14	GABRA2	SID164365694	-0.136	105	95.8	inactive
15	GABRA2	SID164365696	-0.191	69.3	60.7	inactive
16	STUB1	SID164409969	-0.128	49.6	45.4	inactive
17	STUB1	SID164409970	0.342	31.7	40.1	inactive
18	STUB1	SID164409971	-0.327	97.8	78	inactive
19	STUB1	SID164409975	0.181	39.1	44.3	inactive
20	LANCL1	SID164410242	-0.449	68.2	50	inactive
21	LANCL1	SID164410243	0.285	41	49.9	inactive
22	LANCL1	SID164410246	-0.233	75	63.8	inactive
23	LANCL1	SID164410248	-0.473	57.8	41.6	inactive
24	REEP2	SID164473244	0.55	23.2	34	inactive
25	REEP2	SID164473245	-0.173	102	90.1	inactive
26	REEP2	SID164473249	-0.31	84.6	68.2	inactive
27	REEP2	SID164473250	0.41	57.3	76.2	inactive
28	ELOC	SID164391047	0.558	33.8	49.8	inactive
29	ELOC	SID164391049	-0.293	64	52.2	inactive
30	ELOC	SID164391050	0.237	78.3	92.3	inactive
31	ELOC	SID164391051	0.286	96.1	117	inactive
32	DOK6	SID164592125	-0.527	89.7	62.2	inactive
33	DOK6	SID164592126	-0.381	64.8	49.8	inactive
34	DOK6	SID164592128	0.542	59	85.9	inactive
35	TAAR2	SID164402861	1.54	8.2	23.9	inactive
36	TAAR2	SID164402862	0.109	62.5	67.4	inactive
37	TAAR2	SID164402864	-0.0446	73.5	71.3	inactive
38	TAAR2	SID164402865	-0.0386	102	99	inactive
39	SRPK2	SID164389806	-0.383	75.2	57.7	inactive
40	SRPK2	SID164389807	-0.149	89.7	80.9	inactive
41	SRPK2	SID164389809	0.073	79.7	83.8	inactive
42	SRPK2	SID164389810	0.103	55.8	59.9	inactive
43	FLG	SID164365076	-0.0819	95.3	90.1	inactive
44	FLG	SID164365079	-0.0581	104	99.8	inactive
45	FLG	SID164365080	-0.00459	62	61.8	inactive
46	FLG	SID164365082	-0.388	55.6	42.5	inactive
47	TAS1R1	SID164536910	-0.488	5.99	4.27	inactive
48	TAS1R1	SID164536912	0.262	60.1	72.1	inactive
49	TAS1R1	SID164536914	0.515	52.2	74.6	inactive
50	TAS1R1	SID164536915	-0.0879	77.1	72.6	inactive
51	CKLF	SID164472485	-0.246	93	78.4	inactive
52	CKLF	SID164472486	-0.098	49.1	45.9	inactive
53	CKLF	SID164472488	-0.262	98.5	82.2	inactive
54	CKLF	SID164472491	-0.206	93	80.6	inactive

Continued (3 carried over from the part before).
no.	Gene	PubChem SID	log2 vehicle/camptothecin viability	viability with camptothecin (% of control)	viability without drug (% of control)	call
52	CKLF	SID164472486	-0.098	49.1	45.9	inactive
53	CKLF	SID164472488	-0.262	98.5	82.2	inactive
54	CKLF	SID164472491	-0.206	93	80.6	inactive
55	CHMP1B	SID164492867	-0.0195	96.8	95.5	inactive
56	CHMP1B	SID164492869	-0.0095	100	99.4	inactive
57	CHMP1B	SID164492870	-0.129	52.8	48.3	inactive
58	CHMP1B	SID164492872	-0.252	81	68	inactive
59	MESP1	SID164487514	-0.281	70.4	57.9	inactive
60	MESP1	SID164487515	0.0576	55.7	57.9	inactive
61	MESP1	SID164487517	0.0229	119	121	inactive
62	PASK	SID164446170	0.144	97.2	107	inactive
63	PASK	SID164446171	-0.417	87.8	65.8	inactive
64	PASK	SID164446175	-0.153	117	106	inactive
65	PASK	SID164446176	0.214	60.9	70.6	inactive
66	ZNF346	SID164448869	-0.157	68.8	61.8	inactive
67	ZNF346	SID164448870	-0.255	82.9	69.5	inactive
68	ZNF346	SID164448872	-0.18	53.3	47	inactive
69	ZNF346	SID164448874	-0.21	104	89.6	inactive
70	POLB	SID164381563	-0.452	96.5	70.6	inactive
71	POLB	SID164381564	-0.164	55.4	49.4	inactive
72	POLB	SID164381567	-0.409	19	14.3	inactive
73	POLB	SID164381569	-0.229	102	87.1	inactive
74	DTX3L	SID164576463	-0.561	74.1	50.3	inactive
75	DTX3L	SID164576464	-0.00525	78.7	78.4	inactive
76	DTX3L	SID164576465	0.0591	89	92.8	inactive
77	DTX3L	SID164576466	-0.141	39.7	36	inactive
78	DGKQ	SID164360993	-0.598	64	42.3	inactive
79	DGKQ	SID164360994	-0.105	49.8	46.3	inactive
80	DGKQ	SID164360995	-0.156	101	90.7	inactive
81	DGKQ	SID164360996	-0.371	62.7	48.4	inactive
82	FANCD2	SID164364223	-0.605	96.8	63.6	inactive
83	FANCD2	SID164364228	-0.333	96.6	76.7	inactive
84	FANCD2	SID164364229	-0.0331	109	107	inactive
85	FANCD2	SID164364230	-0.0943	84.2	78.8	inactive
86	CD79A	SID164357435	-0.132	46.1	42	inactive
87	CD79A	SID164357436	-0.089	96.4	90.6	inactive
88	CD79A	SID164357437	-0.287	95	77.8	inactive
